Experimental data: PubChem BioAssay AID652259 (Drosophila RNAi Screening Center, 2013)
Purpose: 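Identify new Wingless signalling regulators in fly cells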 (primary screen). Cells: Drosophila clone 8 imaginal disc epithelial cells. Knock-down reagent: long dsRNA against Drosophila genes. Conditions: pathway stimulated by co-transfected Wingless expression plasmid. Measured: 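Firefly luciferase from a tcf-site Wingless reporter, measured alongside co-transfected Renilla luciferase that tracks transfection; pathway stimulated by a Wingless plasmid; the firefly-to-Renilla ratio is not deposited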. Scale: firefly reporter light: higher = more Wg reporter light, before normalisation; Renilla control light: higher = more transfected or surviving cells. Hit rule: 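a knock-down is a candidate when at least two out of four statistical tests show it departing from its plate mean; one test alone signals a weak candidate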. Meaning of the calls: active = candidate regulator (raises or lowers reporter); inactive = not a candidate.
The screen tested about 22,000 reagents; below is an unselected part of those that have a named target and a result. Of all reagents, 233 (1.1%) got an active call. 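Light values are raw, unnormalised plate reads; the ratio scores behind the reporter calls were not deposited.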 A number with no mark means an inactive call. Not stated in the record: the amount of reagent, the time to read-out, the dose of the treatment.

target | PubChem SID | reporter change call, replicate 1 | firefly reporter light, replicate 1 | firefly reporter light, replicate 2 | Renilla control light, replicate 1 | Renilla control light, replicate 2
dpr13 (GeneID 3885598) | SID104185952 | – | 5728 | – | 1925 | –
dpr13 (GeneID 3885598) | SID104186256 | – | 6352 | – | 2210 | –
lola (GeneID 44548) | SID104185012 | – | 15577 | – | 13752 | –
lola (GeneID 44548) | SID104185013 | – | 18900 | – | 20453 | –
lola (GeneID 44548) | SID104185014 | – | 22029 | – | 18018 | –
lola (GeneID 44548) | SID104185015 | – | 25617 | – | 12930 | –
lola (GeneID 44548) | SID104185016 | – | 22924 | – | 12508 | –
lola (GeneID 44548) | SID104186530 | – | 5738 | – | 1305 | –
lola (GeneID 44548) | SID104186531 | – | 2429 | 6961 | 534 | 1616
lola (GeneID 44548) | SID104186532 | – | 9763 | – | 2278 | –
lola (GeneID 44548) | SID104186533 | – | 1493 | 5525 | 615 | 2408
lola (GeneID 44548) | SID104186534 | – | 2853 | 3520 | 310 | 800
lola (GeneID 44548) | SID104187438 | – | 13658 | – | 4631 | –
lola (GeneID 44548) | SID104187439 | – | 3556 | 6632 | 816 | 3030
TpnC25D (GeneID 33752) | SID104182757 | – | 3696 | 7200 | 1209 | 1675
Atac2 (GeneID 35113) | SID104181845 | – | 7018 | – | 3301 | –
HLH54F (GeneID 37027) | SID104187230 | – | 4899 | – | 2188 | –
CG13023 (GeneID 39894) | SID104189246 | – | 2816 | – | 1232 | –
CG13023 (GeneID 39894) | SID104189695 | – | 9488 | – | 3816 | –
CG33136 (GeneID 318894) | SID104185536 | Wg reporter activity lowered (active) | 4897 | – | 9809 | –
LTV1 (GeneID 36146) | SID104185743 | – | 10762 | – | 3768 | –
Gle1 (GeneID 35849) | SID104186277 | – | 9899 | – | 2633 | –
CG13801 (GeneID 38299) | SID104188127 | – | 4256 | – | 2693 | –
igl (GeneID 36681) | SID104187423 | – | 16729 | – | 3168 | –
CG7514 (GeneID 38571) | SID104188389 | – | 1764 | 6250 | 1002 | 2697
Idgf5 (GeneID 37104) | SID104186711 | – | 12578 | – | 3880 | –
RhoGAPp190 (GeneID 32743) | SID104199889 | – | 31303 | – | 12176 | –
RhoGAPp190 (GeneID 32743) | SID104199891 | – | 3543 | 6154 | 699 | 2419
bves (GeneID 33083) | SID104200312 | – | 13805 | – | 9996 | –
bves (GeneID 33083) | SID104200346 | – | 19446 | – | 11562 | –
bves (GeneID 33083) | SID104200347 | – | 17109 | – | 10442 | –
Chc (GeneID 32537) | SID104200021 | – | 4880 | 10276 | 850 | 1923
Parp16 (GeneID 36841) | SID104186389 | – | 6440 | – | 2384 | –
CG11635 (GeneID 35808) | SID104185867 | – | 3514 | 7339 | 704 | 2720
rho-6 (GeneID 34640) | SID104182380 | – | 1645 | 5933 | 1095 | 2856
CG7025 (GeneID 34042) | SID104182794 | – | 2281 | 6483 | 490 | 2711
CG7607 (GeneID 39263) | SID104190681 | – | 7253 | – | 3683 | –
nub (GeneID 34669) | SID104181052 | – | 20784 | – | 11436 | –
nub (GeneID 34669) | SID104182290 | – | 2176 | 7648 | 860 | 2480
nub (GeneID 34669) | SID104182291 | – | 3307 | 8208 | 1272 | 3104
nub (GeneID 34669) | SID104183375 | – | 1637 | 4998 | 784 | 2034
JMJD4 (GeneID 35089) | SID104182817 | – | 17732 | – | 6177 | –
ACXE (GeneID 53426) | SID104180639 | – | 2305 | 7593 | 842 | 3024
Syt4 (GeneID 40876) | SID104192398 | – | 13192 | – | 3547 | –
CG4982 (GeneID 39794) | SID104190257 | – | 5032 | – | 1255 | –
obst-B (GeneID 34336) | SID104181779 | – | 10130 | – | 3021 | –
CG13248 (GeneID 40254) | SID104191488 | – | 13734 | – | 5576 | –
CG17239 (GeneID 59224) | SID104180284 | – | 2576 | 7216 | 875 | 2149
CG4611 (GeneID 38601) | SID104190226 | – | 1412 | 11259 | 1209 | 4368

Already shown: an excerpt of the list.
target | PubChem SID | reporter change call, replicate 1 | firefly reporter light, replicate 1 | firefly reporter light, replicate 2 | Renilla control light, replicate 1 | Renilla control light, replicate 2
CG4982 (GeneID 39794) | SID104190257 | – | 5032 | – | 1255 | –
obst-B (GeneID 34336) | SID104181779 | – | 10130 | – | 3021 | –
CG13248 (GeneID 40254) | SID104191488 | – | 13734 | – | 5576 | –
CG17239 (GeneID 59224) | SID104180284 | – | 2576 | 7216 | 875 | 2149
CG4611 (GeneID 38601) | SID104190226 | – | 1412 | 11259 | 1209 | 4368
